This is an account of results in PubChem BioAssay AID248 (DTP/NCI, 2004).

The list does not hold the whole screen: it gathers tests that were run many times, whatever their T/C, doses with no T/C, and many T/C values between a quarter and a half above the control. Further doses and runs are listed elsewhere. T/C is the treated group as % of the vehicle group. Some entries give survivors of the animals treated and no T/C: the source files T/C as zero there, which appears to mark a toxic dose or a test without result, not a measured value. Some survivor counts are full or nearly so, which does not show that the dose was tolerated: survival well below the control is almost never listed, so the zero probably covers shortened survival too. Counts of survivors are from the toxicity check (mostly the fifth day) where no day follows; animals may have died later. Schedule codes are those of the source, read here as Q, the interval in days (D) or hours (H), X, the number of doses. Some schedule codes hold Z or #, which are not explained here. Where survival is the endpoint, the PubChem record calls one and a half times the control and up active, and a quarter to a half above the control has no call in these data; cut-offs in other NCI protocols can differ. Some T/C values are followed by the survivors on the day toxicity was checked, most often the fifth; without a count, all were alive then. Some entries hold several experiments; the results are listed from low to high.

For the test, the system named is L1210 leukemia ip in BDF1 mice, survival T/C. Briefly: NCI In Vivo Anticancer Drug Screen. Data for tumor model L1210 Leukemia (intraperitoneal) in B6D2F1 (BDF1) mice. The conditions noted are these: T/C endpoint: mean survival time, higher T/C = longer survival.
Where [1] appears, read: dose: 100.0 mg/kg/injection, schedule: Q01DX009 (ip), vehicle: saline with Tween-80.
[2] abbreviates: dose: 200.0 mg/kg/injection, schedule: Q01DX009 (ip), vehicle: saline with Tween-80.
[3] abbreviates: dose: 400.0 mg/kg/injection, schedule: Q01DX009 (ip), vehicle: water.
[4] abbreviates: dose: 200.0 mg/kg/injection, schedule: Q01DX001 (ip), vehicle: saline.
Setting [5] is: dose: 400.0 mg/kg/injection, schedule: Q01DX009 (ip), vehicle: Klucel (hydroxypropylcellulose) (HPC).
The mark [6] stands for this setting: dose: 400.0 mg/kg/injection, schedule: Q01DX009 (ip), vehicle: saline with Tween-80.
Where [7] appears, read: dose: 40.0 mg/kg/injection, schedule: Q01DX001 (ip), vehicle: saline.
Where [8] appears, read: dose: 80.0 mg/kg/injection, schedule: Q01DX001 (ip), vehicle: saline.
[9] abbreviates: dose: 400.0 mg/kg/injection, schedule: Q01DX001 (ip), vehicle: saline.

For the compound `CCC(=O)OCN1C(=O)C2C3CCC(O3)C2C1=O` (stereo unspecified), the survivor count (dose: 350.0 mg/kg/injection, schedule: Q01DX009 (ip), vehicle: other) is given as 0 of 6.
Turning to `[O-][n+]1c(C(Cl)(Cl)Cl)cc(Cl)nc1Cl`, for the setting “dose: 400.0 mg/kg/injection, schedule: Q01DX001 (ip), vehicle: Klucel (hydroxypropylcellulose) (HPC)”, the survivor count was 0 of 6.
Regarding `CC(=O)OCC(OC(C)=O)C(OC(C)=O)C(OC(C)=O)C(O)C#N` (stereo unspecified), the survivor count under setting [1] is on record as 1 of 3 and the survivor count under setting [2] is on record as 0 of 3.
Turning to `O=C1NC(=O)C2CC(Br)C(Br)CC12` (stereo unspecified), the survivor count is, setting by setting: (dose: 20.0 mg/kg/injection, schedule: Q04DX003 (ip), vehicle: Klucel (hydroxypropylcellulose) (HPC)) 5 of 6; (dose: 40.0 mg/kg/injection, schedule: Q04DX003 (ip), vehicle: Klucel (hydroxypropylcellulose) (HPC)) 0 of 6.
For `CC(=O)NNC(=O)c1ccncc1`, the T/C under setting [3] was 131 and 132 % of control [5 of 6 alive].
Consider `O=C(O)C1(NO)CCCC1`, for which the T/C under setting [4] is 126 % of control.
`C=CCNC(=S)N(C)Cc1ccccc1Cl`: the survivor count under setting [5] is recorded as 0 of 6.
As for `CCOC(=N)N1Cc2ccccc2CCc2ccccc2C1`, the survivor count by setting is: (dose: 100.0 mg/kg/injection, schedule: Q01DX009 (ip), vehicle: Klucel (hydroxypropylcellulose) (HPC)) 0 of 6; (dose: 100.0 mg/kg/injection, schedule: Q04DX002 (ip), vehicle: Klucel (hydroxypropylcellulose) (HPC)) 0 of 3; (dose: 200.0 mg/kg/injection, schedule: Q01DX009 (ip), vehicle: Klucel (hydroxypropylcellulose) (HPC)) 0 of 6; under setting [5], 0 of 6.
For `COc1ccccc1/C=C/C(=O)c1ccccc1`, under setting [2], the survivor count is 6 of 6.
In the case of `Cc1cc(Cl)ccc1NC(=O)Oc1cc(C)c(Cl)c(C)c1Cl`, under setting [1], the T/C was 93, 103, 105, 108 % of control. Further, the survivor count under setting [6] was 1 of 3.
As to `CN(C)C(=O)c1cc[n+](Cc2ccc(Cl)cc2)cc1`, the survivor count is reported as 6 of 6 (dose: 200.0 mg/kg/injection, schedule: Q04DX003 (ip), vehicle: saline) and 1 of 6 (dose: 400.0 mg/kg/injection, schedule: Q04DX003 (ip), vehicle: saline).
For `CCOC(=O)Nc1ccccc1C`, for the setting “dose: 500.0 mg/kg/injection, schedule: Q01DX Z (ip), vehicle: methylcellulose (MC)”, the survivor count is 3 of 6.
Regarding `CN1CCN(C(=O)Cc2c[nH]c3ccccc23)CC1`, the survivor count (dose: 12.5 mg/kg/injection, schedule: Q01DX009 (ip), vehicle: saline with Tween-80) is 1 of 6; the survivor count (dose: 25.0 mg/kg/injection, schedule: Q01DX009 (ip), vehicle: saline with Tween-80) is recorded as 6 of 6; the survivor count (dose: 50.0 mg/kg/injection, schedule: Q01DX009 (ip), vehicle: saline with Tween-80) is listed as 6 of 6; the survivor count under setting [1] is on record as 6 of 6; the survivor count under setting [2] is given as 2 of 6; the survivor count (dose: 200.0 mg/kg/injection, schedule: Q04DX003 (ip), vehicle: saline with Tween-80) is recorded as 3 of 6. Further, the survivor count runs as follows: under setting [6], 0 of 6; (dose: 400.0 mg/kg/injection, schedule: Q04DX003 (ip), vehicle: saline with Tween-80) 2 of 6.
Take `O=c1[nH]c(=O)c2nccnc2[nH]1`: the survivor count under setting [3] is on record as 1 of 6.
`CC(O)CN(CCN(CC(C)O)CC(C)O)CCN(CC(C)O)CC(C)O.O=S(=O)([O-])[O-].[Cu+2]` (stereo unspecified): the survivor count by setting is: (dose: 20.0 mg/kg/injection, schedule: Q01DX001 (ip), vehicle: saline) 0 of 4; under setting [7], 0 of 4; (dose: 50.0 mg/kg/injection, schedule: Q01DX001 (ip), vehicle: saline) 0 of 4; under setting [8], 0 of 4; (dose: 100.0 mg/kg/injection, schedule: Q01DX001 (ip), vehicle: saline) 0 of 4; under setting [4], 0 of 4. Under setting [9], the survivor count is given as 0 of 4.
With `Cc1nc(C(=O)O)c(=O)[nH]c1C`, the survivor count is listed as 0 of 6 (dose: 300.0 mg/kg/injection, schedule: Q01DX009 (ip), vehicle: water) and 1 of 6 (dose: 400.0 mg/kg/injection, schedule: Q04DX003 (ip), vehicle: water).
With `COc1ccc(C[As+](Cc2ccccc2)(Cc2ccc(OC)cc2)Cc2ccc(OC)cc2)cc1`, the survivor count reads like this: under setting [7], 4 of 6; under setting [8], 0 of 6.
Take `CC(NN)c1ccccc1` (stereo unspecified): the survivor count is recorded as 2 of 4 under setting [4] and 0 of 4 under setting [9].
